{
  "sequences": {"note": "Amino acid sequences for entries named in this document (tags omitted).", "UniProt Q0JBA9, entry or part of it": "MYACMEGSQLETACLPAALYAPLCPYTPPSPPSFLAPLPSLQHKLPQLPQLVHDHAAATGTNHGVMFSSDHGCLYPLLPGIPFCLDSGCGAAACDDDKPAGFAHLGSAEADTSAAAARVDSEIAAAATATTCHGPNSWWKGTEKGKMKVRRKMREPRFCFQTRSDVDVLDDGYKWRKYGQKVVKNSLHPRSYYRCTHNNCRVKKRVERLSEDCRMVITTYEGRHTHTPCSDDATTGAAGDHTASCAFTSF"},
  "source": "paper PMC7819943",
  "about": "“Rice protein-binding microarrays: a tool to detect cis-acting elements near promoter regions in rice”",
  "note": "This is one part of the list.",
  "data": [
    {"target": "OsWRKY34 (Oryza sativa, UniProt Q0JBA9 1-250)", "assay": "protein-binding microarray (RPBM); PBS, 2% BSA, 51.3 ng/ul salmon testes DNA, 50 uM zinc acetate, 200 nM TF, 25 C, 1 h; high values mean tight binding", "conditions": "protein: recombinant; tags: N-terminal polyhistidine and DsRed monomer fusion (pET32a); label: CyDye5-dUTP incorporated in the synthesized complementary strand; 3' TTTTT single-stranded linker to array surface; dsDNA, one strand shown", "procedure,_shortened": "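Binding signal is reported as fluorescence intensity per feature (arbitrary units) from an Axon 4000B scanner. Incubation used 200 nM of each Ni–NTA-purified, N-terminally polyhistidine- and DsRed-fused transcription factor from E. coli BL21-CodonPlus on a double-stranded custom Agilent array for 1 h at 25 °C, with 50 µM zinc acetate in the buffer, followed by washing.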", "values": [
      {"sequence": "GAGCTTGGGGTTGTGTATGGTGGTGGTGGTGTGGTAGCTACGGAGTCACCTAGTGCAG", "binding signal": "33200 fluorescence intensity (a.u.)"},
      {"sequence": "TCCGTGTATCTGTCTTGGTATGTACTGCTCTCTCAATACACGGAGTCACCTAGTGCAG", "binding signal": "13700 fluorescence intensity (a.u.)"},
      {"sequence": "TATCTGTGTGTTTTGTCCTATGCTTTACATTTCTGGTGGACGGAGTCACCTAGTGCAG", "binding signal": "12300 fluorescence intensity (a.u.)"},
      {"sequence": "GTCATGAACTTTCAATGCTTCGTAACCAGTTTTGTCAAATCGGAGTCACCTAGTGCAG", "binding signal": "9170 fluorescence intensity (a.u.)"},
      {"sequence": "ACGACACCGAAACCGACTTCCACACCACGCGGGCCCCACACGGAGTCACCTAGTGCAG", "binding signal": "9290 fluorescence intensity (a.u.)"},
      {"sequence": "GCGACACAGCGGCGGCGGCGAGATCGTCTGCGTCTTCTTCCGGAGTCACCTAGTGCAG", "binding signal": "8320 fluorescence intensity (a.u.)"},
      {"sequence": "ATTGTTTTTTTGAAGCTATGAGTTCTTTTTATCAGCAATTCGGAGTCACCTAGTGCAG", "binding signal": "8980 fluorescence intensity (a.u.)"},
      {"sequence": "GAACCACCTTTTATCACTGTGTATTCACAACCTATAAAAACGGAGTCACCTAGTGCAG", "binding signal": "9430 fluorescence intensity (a.u.)"},
      {"sequence": "TAGCAACCATTAGCCATGTGTCCTTGATTTTTCTATTATACGGAGTCACCTAGTGCAG", "binding signal": "9380 fluorescence intensity (a.u.)"},
      {"sequence": "TATGCAGCTAATTAATAAGTCGATCGCTGCATATCCCTTTCGGAGTCACCTAGTGCAG", "binding signal": "8600 fluorescence intensity (a.u.)"},
      {"sequence": "CCATTCCTCTTCTCTCTCTCTCGCTCGCGCTGTACTAACTCGGAGTCACCTAGTGCAG", "binding signal": "9360 fluorescence intensity (a.u.)"},
      {"sequence": "AGTCGTTTACTAGTCCATTTCACCATCCCTGGGCCACATCCGGAGTCACCTAGTGCAG", "binding signal": "8900 fluorescence intensity (a.u.)"},
      {"sequence": "CGAGCCCAGCAACTCCGCTATTATGCCTACCGTCCCGCGCCGGAGTCACCTAGTGCAG", "binding signal": "8670 fluorescence intensity (a.u.)"},
      {"sequence": "GCTCCCATCTGGATGCCGACCCCTGCACACAAGCCATCCTCGGAGTCACCTAGTGCAG", "binding signal": "8140 fluorescence intensity (a.u.)"},
      {"sequence": "GCATATTATGTGCTTCCTCGTCAGGCCTCTGTAATGATCACGGAGTCACCTAGTGCAG", "binding signal": "8780 fluorescence intensity (a.u.)"},
      {"sequence": "GAACCTTCACGTGCCGCGCGGCCCAGCCATTGCCCGTGCCCGGAGTCACCTAGTGCAG", "binding signal": "9000 fluorescence intensity (a.u.)"},
      {"sequence": "ACCAGTCACCACCACTTGTCCGGTCAACTCTCCAGTGACCCGGAGTCACCTAGTGCAG", "binding signal": "9350 fluorescence intensity (a.u.)"},
      {"sequence": "TTCGCATGGCCCCGTTTCCTGATTGCTTTTCTATTTTTCCCGGAGTCACCTAGTGCAG", "binding signal": "8440 fluorescence intensity (a.u.)"},
      {"sequence": "AGTGTCGTCACACTGCCGTTTTTACACACTCATCATACATCGGAGTCACCTAGTGCAG", "binding signal": "9400 fluorescence intensity (a.u.)"},
      {"sequence": "TGTGATGTATTTGATTTATGATGTATTTATTTGTGTGTATCGGAGTCACCTAGTGCAG", "binding signal": "8360 fluorescence intensity (a.u.)"},
      {"sequence": "ACTTATCATGTTGCTCTCTCGAGTCGCCGTCGTAGACTGACGGAGTCACCTAGTGCAG", "binding signal": "11200 fluorescence intensity (a.u.)"},
      {"sequence": "CGTTTTCTCCGCTCTCTACTCTTCTCTTTCTCCTCTCTCGCGGAGTCACCTAGTGCAG", "binding signal": "12000 fluorescence intensity (a.u.)"},
      {"sequence": "TTTTTCAGTGCCTAGGTGGATCCTTGTTATCTCCAGACTACGGAGTCACCTAGTGCAG", "binding signal": "8080 fluorescence intensity (a.u.)"},
      {"sequence": "CCGCCTCGTTGGAGGTCTGTGGCGTGGGGTGGTTGATCTCCGGAGTCACCTAGTGCAG", "binding signal": "8140 fluorescence intensity (a.u.)"},
      {"sequence": "TGCACACAGGCCCTCACGTGTACACACGTGCACACCAACTCGGAGTCACCTAGTGCAG", "binding signal": "8640 fluorescence intensity (a.u.)"},
      {"sequence": "GTCGCCGGCTTCGTCTTCGCCTATGTAGCGTGAGATCCTCCGGAGTCACCTAGTGCAG", "binding signal": "8940 fluorescence intensity (a.u.)"},
      {"sequence": "ACTTCACCTGCAGATACATACACCCACAGTTTCTGACTTCCGGAGTCACCTAGTGCAG", "binding signal": "8680 fluorescence intensity (a.u.)"},
      {"sequence": "ACTCTTATTATATATCTTGCTGCCTCTGTTTGATTTACATCGGAGTCACCTAGTGCAG", "binding signal": "9060 fluorescence intensity (a.u.)"},
      {"sequence": "ATGTGTGATATTAAAATTTAAGAGGGGAGTGGGGTGGTAACGGAGTCACCTAGTGCAG", "binding signal": "8350 fluorescence intensity (a.u.)"},
      {"sequence": "GGTAATAGGTCAGGGTTGTGCAGGTGCATGCTCTTGTTGACGGAGTCACCTAGTGCAG", "binding signal": "8192 fluorescence intensity (a.u.)"},
      {"sequence": "ACATCTTACAATTAACACTACTGTCTATGTCTCAATTCATCGGAGTCACCTAGTGCAG", "binding signal": "9890 fluorescence intensity (a.u.)"},
      {"sequence": "TATACGACGCTAACGCTGTTGACTTTTTACATACTACTCACGGAGTCACCTAGTGCAG", "binding signal": "14700 fluorescence intensity (a.u.)"},
      {"sequence": "CACCTCTCTCGTTTTCCGCGCACACGCTTTTCAAACTATTCGGAGTCACCTAGTGCAG", "binding signal": "12100 fluorescence intensity (a.u.)"},
      {"sequence": "CACAAGTACAAACAACTGCTAGCGTGGATATGTCTCACTACGGAGTCACCTAGTGCAG", "binding signal": "8090 fluorescence intensity (a.u.)"},
      {"sequence": "TCTCCCCTTTCTGCTTCTGCTGCTTCTCCCTTTCCCTCTCCGGAGTCACCTAGTGCAG", "binding signal": "8200 fluorescence intensity (a.u.)"},
      {"sequence": "TTGTTTCTTATTTATGTTTGGTGTCTTTTTATATTTATTTCGGAGTCACCTAGTGCAG", "binding signal": "9720 fluorescence intensity (a.u.)"},
      {"sequence": "GTTGTCTAGCTGGTTGGTTGGTGTGTCTTCTAAGCCGCGTCGGAGTCACCTAGTGCAG", "binding signal": "10900 fluorescence intensity (a.u.)"},
      {"sequence": "TGCACACATGCACACACGCGCGCGCTGCTGCTGCTGCTGACGGAGTCACCTAGTGCAG", "binding signal": "8160 fluorescence intensity (a.u.)"},
      {"sequence": "ACCACCACACGCGCGCGCTCGCACAGACACACACACAGCACGGAGTCACCTAGTGCAG", "binding signal": "8250 fluorescence intensity (a.u.)"},
      {"sequence": "GTCGCGTGTGCTTCTTTCTCGCCTTCTTCAGTCCGCGGCGCGGAGTCACCTAGTGCAG", "binding signal": "9820 fluorescence intensity (a.u.)"},
      {"sequence": "CCGATAGTATGCCAACTGATGCCATGCCACTGCTGTTGACCGGAGTCACCTAGTGCAG", "binding signal": "11100 fluorescence intensity (a.u.)"},
      {"sequence": "ACTAATTCACTATTTCGGTCAAACTCCTACCGCTAGATATCGGAGTCACCTAGTGCAG", "binding signal": "8640 fluorescence intensity (a.u.)"},
      {"sequence": "CGCCGCTGCCCGCATCATCACCACCTCACCTCACCTCAGCCGGAGTCACCTAGTGCAG", "binding signal": "8160 fluorescence intensity (a.u.)"},
      {"sequence": "TGTATTTTTTTGCGAAAGCCCTCTGGTTCACGCGTAATTCCGGAGTCACCTAGTGCAG", "binding signal": "8840 fluorescence intensity (a.u.)"},
      {"sequence": "TTTTCTTTCTGTCAGCCCATACTTTTCTGAATATTTACTCCGGAGTCACCTAGTGCAG", "binding signal": "8590 fluorescence intensity (a.u.)"},
      {"sequence": "TTTTTTTTGTTCGGCAGAGATGCACACGCAATAATTGTCCCGGAGTCACCTAGTGCAG", "binding signal": "8640 fluorescence intensity (a.u.)"},
      {"sequence": "CTACTTCCAGTTCCATTTGTATTCATGTCACCAATATCGTCGGAGTCACCTAGTGCAG", "binding signal": "8030 fluorescence intensity (a.u.)"},
      {"sequence": "ATGCTCATCATGACCGGCATGCTCGACTCTGCCATCCCGACGGAGTCACCTAGTGCAG", "binding signal": "8950 fluorescence intensity (a.u.)"},
      {"sequence": "GTGTCCATGTCCATGTCGCGGCCATTTATAATCGTAAGCACGGAGTCACCTAGTGCAG", "binding signal": "9480 fluorescence intensity (a.u.)"},
      {"sequence": "GAACTGCTCCCTCCATCCATAAATATTTGACGCCGTTGACCGGAGTCACCTAGTGCAG", "binding signal": "11900 fluorescence intensity (a.u.)"},
      {"sequence": "TGTATTTCGGATGGATACTGTGTGGTGTGTGTGTGGCTGACGGAGTCACCTAGTGCAG", "binding signal": "8240 fluorescence intensity (a.u.)"},
      {"sequence": "GGGTGTGAGATTGTGAGAGAATGGTCAAATTTACTTGGTACGGAGTCACCTAGTGCAG", "binding signal": "11600 fluorescence intensity (a.u.)"},
      {"sequence": "CTTACCTTGCTAACCGCACTGTCGACTCTTGCATGTTTGCCGGAGTCACCTAGTGCAG", "binding signal": "8660 fluorescence intensity (a.u.)"},
      {"sequence": "CTCTCCACTCGTACCCCGCATCCTTTCGTTATCTGTACGGCGGAGTCACCTAGTGCAG", "binding signal": "11300 fluorescence intensity (a.u.)"}
    ]}
  ]
}
